Experimental data reported in the supplement of paper PMC10849652.
The list shows a part of the results.

The chains behind the UniProt entries cited, without tags or fusion partners. Where a name states a change or a piece, a line headed by the entry shows the natural chain unless it says otherwise.
UniProt P49368: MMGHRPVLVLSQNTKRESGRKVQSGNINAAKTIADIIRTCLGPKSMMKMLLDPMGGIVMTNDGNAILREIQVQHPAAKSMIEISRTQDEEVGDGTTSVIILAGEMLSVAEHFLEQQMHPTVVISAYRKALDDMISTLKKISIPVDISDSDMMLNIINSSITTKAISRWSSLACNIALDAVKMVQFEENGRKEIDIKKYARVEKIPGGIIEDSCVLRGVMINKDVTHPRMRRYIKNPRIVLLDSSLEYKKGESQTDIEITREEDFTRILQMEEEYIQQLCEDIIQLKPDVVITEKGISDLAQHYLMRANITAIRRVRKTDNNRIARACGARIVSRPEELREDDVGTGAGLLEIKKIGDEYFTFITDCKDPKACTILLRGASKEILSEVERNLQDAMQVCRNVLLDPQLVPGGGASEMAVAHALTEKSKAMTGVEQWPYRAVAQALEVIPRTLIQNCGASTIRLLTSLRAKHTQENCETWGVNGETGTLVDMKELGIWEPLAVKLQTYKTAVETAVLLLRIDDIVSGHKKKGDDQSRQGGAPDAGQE
UniProt Q13951, whole entry, looked up: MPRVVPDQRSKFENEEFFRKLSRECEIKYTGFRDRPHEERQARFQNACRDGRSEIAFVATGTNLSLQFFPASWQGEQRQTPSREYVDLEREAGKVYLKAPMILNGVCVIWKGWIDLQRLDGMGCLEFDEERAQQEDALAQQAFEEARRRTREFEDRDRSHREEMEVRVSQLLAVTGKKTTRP
UniProt O43303: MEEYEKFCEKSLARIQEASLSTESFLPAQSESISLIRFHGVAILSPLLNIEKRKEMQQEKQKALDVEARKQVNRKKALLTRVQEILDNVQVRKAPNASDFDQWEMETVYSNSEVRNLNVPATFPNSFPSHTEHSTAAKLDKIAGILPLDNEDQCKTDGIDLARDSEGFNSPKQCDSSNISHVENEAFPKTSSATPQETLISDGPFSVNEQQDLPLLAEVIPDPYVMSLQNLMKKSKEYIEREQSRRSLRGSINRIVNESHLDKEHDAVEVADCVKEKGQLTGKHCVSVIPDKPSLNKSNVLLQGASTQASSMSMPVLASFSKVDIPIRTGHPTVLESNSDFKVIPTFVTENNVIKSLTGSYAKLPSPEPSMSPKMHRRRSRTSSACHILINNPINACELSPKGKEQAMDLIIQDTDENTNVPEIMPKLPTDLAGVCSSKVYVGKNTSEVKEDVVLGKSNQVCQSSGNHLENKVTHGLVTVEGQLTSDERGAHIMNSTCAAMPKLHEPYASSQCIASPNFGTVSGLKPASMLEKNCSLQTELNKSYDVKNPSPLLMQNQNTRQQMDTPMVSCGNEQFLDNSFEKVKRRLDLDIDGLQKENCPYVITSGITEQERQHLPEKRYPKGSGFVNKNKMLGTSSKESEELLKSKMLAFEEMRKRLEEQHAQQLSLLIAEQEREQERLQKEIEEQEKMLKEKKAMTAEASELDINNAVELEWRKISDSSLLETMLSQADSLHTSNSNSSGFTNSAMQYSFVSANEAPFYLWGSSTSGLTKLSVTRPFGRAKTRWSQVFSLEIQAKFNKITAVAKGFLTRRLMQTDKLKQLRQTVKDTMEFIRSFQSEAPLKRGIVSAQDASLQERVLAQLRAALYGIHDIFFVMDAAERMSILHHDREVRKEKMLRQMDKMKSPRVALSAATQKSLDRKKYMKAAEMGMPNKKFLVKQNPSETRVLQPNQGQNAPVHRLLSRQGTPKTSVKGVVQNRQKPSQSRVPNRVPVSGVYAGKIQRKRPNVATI
UniProt Q8IYE1: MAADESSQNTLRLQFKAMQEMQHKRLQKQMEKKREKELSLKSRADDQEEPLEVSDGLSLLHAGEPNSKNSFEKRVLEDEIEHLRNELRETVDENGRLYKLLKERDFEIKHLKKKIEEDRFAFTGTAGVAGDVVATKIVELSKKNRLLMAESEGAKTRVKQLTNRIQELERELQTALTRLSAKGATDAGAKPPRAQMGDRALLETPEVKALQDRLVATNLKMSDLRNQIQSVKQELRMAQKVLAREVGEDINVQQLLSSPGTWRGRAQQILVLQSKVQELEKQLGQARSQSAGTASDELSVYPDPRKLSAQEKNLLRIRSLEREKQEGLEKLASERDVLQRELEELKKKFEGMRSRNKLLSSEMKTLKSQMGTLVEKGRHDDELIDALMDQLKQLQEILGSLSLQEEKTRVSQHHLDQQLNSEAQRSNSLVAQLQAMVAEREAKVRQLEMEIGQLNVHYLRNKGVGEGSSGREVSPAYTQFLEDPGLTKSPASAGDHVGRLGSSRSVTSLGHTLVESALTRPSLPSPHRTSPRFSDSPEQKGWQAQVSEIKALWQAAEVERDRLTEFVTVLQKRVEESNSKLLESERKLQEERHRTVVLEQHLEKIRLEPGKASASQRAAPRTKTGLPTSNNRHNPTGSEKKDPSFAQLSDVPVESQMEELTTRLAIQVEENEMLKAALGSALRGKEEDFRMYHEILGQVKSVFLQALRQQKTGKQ
UniProt O60583: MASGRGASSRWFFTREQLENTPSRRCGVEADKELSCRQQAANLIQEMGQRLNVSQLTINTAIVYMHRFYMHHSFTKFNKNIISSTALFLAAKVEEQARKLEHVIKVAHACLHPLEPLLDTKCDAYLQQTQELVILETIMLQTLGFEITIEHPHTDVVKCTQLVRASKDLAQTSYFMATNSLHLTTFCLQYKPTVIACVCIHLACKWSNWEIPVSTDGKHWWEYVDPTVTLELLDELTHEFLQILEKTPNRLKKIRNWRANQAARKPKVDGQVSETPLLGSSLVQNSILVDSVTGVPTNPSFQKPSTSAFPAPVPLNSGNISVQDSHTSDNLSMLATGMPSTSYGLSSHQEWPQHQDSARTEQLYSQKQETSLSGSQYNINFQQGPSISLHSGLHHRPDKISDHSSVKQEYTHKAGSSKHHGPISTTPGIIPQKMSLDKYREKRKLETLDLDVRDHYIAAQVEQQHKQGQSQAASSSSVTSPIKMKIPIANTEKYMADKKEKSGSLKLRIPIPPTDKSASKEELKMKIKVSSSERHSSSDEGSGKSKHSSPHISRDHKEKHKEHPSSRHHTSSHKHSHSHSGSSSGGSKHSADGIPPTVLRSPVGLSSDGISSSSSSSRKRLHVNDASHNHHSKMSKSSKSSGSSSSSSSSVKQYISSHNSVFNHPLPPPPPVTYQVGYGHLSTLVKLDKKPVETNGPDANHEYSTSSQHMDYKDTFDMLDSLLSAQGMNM
UniProt A2RUR9: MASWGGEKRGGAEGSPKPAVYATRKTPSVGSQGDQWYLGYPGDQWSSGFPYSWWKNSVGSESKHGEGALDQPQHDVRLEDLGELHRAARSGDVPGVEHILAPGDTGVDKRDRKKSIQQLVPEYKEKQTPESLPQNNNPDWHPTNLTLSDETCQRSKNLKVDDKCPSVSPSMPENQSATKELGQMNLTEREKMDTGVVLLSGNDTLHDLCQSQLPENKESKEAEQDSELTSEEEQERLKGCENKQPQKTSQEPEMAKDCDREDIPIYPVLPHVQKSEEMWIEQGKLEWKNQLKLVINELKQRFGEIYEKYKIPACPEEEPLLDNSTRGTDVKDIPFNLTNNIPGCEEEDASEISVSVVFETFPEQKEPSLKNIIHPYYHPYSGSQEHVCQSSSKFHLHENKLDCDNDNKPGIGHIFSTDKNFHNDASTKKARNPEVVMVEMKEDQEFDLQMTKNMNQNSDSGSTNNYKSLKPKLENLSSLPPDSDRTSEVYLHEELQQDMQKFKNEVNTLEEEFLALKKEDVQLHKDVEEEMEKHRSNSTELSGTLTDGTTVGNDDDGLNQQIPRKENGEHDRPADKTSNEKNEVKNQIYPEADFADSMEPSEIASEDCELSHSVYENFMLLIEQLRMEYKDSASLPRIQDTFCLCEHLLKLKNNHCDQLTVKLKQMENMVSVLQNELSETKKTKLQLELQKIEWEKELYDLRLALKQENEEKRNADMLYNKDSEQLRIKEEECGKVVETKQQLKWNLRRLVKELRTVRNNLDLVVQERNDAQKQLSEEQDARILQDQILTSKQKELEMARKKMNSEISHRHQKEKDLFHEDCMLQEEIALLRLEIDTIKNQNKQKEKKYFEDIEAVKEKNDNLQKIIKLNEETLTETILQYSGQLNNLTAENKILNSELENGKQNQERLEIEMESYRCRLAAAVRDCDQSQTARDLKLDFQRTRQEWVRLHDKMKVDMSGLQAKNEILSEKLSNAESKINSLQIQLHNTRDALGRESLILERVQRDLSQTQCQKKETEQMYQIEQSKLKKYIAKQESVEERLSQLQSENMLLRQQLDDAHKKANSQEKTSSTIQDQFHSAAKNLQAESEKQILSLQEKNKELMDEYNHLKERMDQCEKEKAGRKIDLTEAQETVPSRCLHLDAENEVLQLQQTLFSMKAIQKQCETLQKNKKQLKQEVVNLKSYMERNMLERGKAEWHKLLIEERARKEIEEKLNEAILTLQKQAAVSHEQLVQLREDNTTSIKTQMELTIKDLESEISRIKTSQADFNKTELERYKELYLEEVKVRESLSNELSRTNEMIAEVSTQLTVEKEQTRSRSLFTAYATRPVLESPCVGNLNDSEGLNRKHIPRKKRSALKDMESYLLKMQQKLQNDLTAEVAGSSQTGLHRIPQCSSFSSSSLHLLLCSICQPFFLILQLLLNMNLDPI
UniProt Q9UKL3: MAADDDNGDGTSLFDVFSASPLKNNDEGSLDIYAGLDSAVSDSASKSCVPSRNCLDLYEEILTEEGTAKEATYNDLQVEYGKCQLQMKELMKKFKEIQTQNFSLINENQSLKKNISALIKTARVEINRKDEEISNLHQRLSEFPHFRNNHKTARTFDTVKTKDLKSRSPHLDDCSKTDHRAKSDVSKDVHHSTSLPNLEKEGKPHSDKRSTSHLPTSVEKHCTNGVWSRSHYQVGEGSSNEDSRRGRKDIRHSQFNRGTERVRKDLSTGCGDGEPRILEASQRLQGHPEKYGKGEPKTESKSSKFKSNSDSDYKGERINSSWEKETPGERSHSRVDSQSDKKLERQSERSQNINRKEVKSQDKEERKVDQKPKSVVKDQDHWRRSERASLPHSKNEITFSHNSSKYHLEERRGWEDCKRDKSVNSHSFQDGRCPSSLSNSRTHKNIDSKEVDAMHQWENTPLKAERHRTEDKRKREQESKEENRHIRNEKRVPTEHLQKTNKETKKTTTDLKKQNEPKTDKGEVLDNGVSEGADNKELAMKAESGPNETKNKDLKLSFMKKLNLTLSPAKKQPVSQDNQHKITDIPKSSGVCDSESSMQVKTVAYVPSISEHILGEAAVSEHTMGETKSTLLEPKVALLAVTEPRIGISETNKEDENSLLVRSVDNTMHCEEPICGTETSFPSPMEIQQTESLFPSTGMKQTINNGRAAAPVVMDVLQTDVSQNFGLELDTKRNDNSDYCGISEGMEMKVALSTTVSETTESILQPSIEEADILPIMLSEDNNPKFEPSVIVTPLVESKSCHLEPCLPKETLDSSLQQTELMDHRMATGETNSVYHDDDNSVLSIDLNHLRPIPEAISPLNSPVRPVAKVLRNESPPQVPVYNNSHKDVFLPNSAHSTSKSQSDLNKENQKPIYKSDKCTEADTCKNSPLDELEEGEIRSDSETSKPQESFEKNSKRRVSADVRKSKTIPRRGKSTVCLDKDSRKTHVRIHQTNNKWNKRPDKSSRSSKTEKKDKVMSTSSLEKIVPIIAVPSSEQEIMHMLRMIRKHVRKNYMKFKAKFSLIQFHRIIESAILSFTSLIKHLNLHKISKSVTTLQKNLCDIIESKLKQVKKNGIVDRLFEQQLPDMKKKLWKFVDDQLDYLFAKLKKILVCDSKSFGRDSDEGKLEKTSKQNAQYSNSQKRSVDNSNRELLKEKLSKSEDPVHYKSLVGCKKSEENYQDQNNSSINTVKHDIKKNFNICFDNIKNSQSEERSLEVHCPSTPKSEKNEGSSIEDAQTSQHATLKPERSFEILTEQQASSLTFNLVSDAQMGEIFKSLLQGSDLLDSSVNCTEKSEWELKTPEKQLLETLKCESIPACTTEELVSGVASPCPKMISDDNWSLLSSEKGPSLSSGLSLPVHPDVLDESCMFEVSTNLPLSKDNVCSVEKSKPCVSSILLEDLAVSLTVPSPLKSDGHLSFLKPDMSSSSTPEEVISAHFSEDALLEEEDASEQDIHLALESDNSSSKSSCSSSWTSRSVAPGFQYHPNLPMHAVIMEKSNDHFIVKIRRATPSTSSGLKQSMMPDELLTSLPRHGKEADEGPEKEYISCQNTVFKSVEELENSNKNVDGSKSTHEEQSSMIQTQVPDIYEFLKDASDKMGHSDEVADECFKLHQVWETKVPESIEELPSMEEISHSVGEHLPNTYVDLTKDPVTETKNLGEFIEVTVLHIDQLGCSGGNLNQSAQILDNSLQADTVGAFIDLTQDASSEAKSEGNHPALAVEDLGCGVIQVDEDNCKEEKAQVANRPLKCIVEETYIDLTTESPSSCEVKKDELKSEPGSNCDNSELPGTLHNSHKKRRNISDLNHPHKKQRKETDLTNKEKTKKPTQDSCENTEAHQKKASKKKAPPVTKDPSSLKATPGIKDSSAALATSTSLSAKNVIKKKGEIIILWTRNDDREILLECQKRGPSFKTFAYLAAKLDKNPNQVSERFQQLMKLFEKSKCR

Assays:
Test in all cases: log2 fold change, soluble protein after heating vs DMSO (PISA); higher = thermal stabilisation; K562 lysate, 10 uM; active = over 0.2 and 3.5 SD of the protein, either way, in both replicates (recomputed)
ibrutinib = compound: C=CC(=O)N1CCC[C@@H](n2nc(-c3ccc(Oc4ccccc4)cc3)c3c(N)ncnc32)C1 [ibrutinib]
Method in brief: (§1)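 To prepare the extract, K562 pellets were dounce-homogenised in PBS pH 7.4 with 1 mM MgCl2, giving crude material at 1 mg/mL protein. This was treated with 10 μM compound for 30 min, then heated in aliquots for 3 min over 48°C-58°C before pooling and addition of NP-40 to 0.5% at 4°C. Centrifugation at 21,000xg for 90 min left soluble protein in the supernatant, which TMTpro 16plex LC-MS/MS quantified with equalised channel sums. Results are log-two fold changes in thermal stability compared with solvent controls, from duplicates.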

[1] = compound: CC(=O)c1cnc2ccc(-c3cc(Cl)c(O)c(Cl)c3)nc2c1N[C@H]1CC[C@H](CN(C)C)CC1
Method in brief: as §1

ralimetinib = compound: CC(C)(C)Cn1c(N)nc2ccc(-c3[nH]c(C(C)(C)C)nc3-c3ccc(F)cc3)nc21 [ralimetinib]
Method in brief: as §1

[2] = compound: CC(C)(O)CC(=O)NCCn1ccc2ncnc(Nc3ccc(Oc4cccc(C(F)(F)F)c4)c(Cl)c3)c21
Method in brief: as §1

[3] = compound: CC(C)C1=C2N=C(C=C(N2N=C1)NCC3=CC=CC=C3)NCCCCCCN
Method in brief: as §1

[4] = compound: CC1=C(C(CC(=O)N1)C2=CC=C(C=C2)C(F)(F)F)C(=O)NC3=C(C=C4C(=C3)C=NN4)F
Method in brief: as §1

[5] = compound: CC1=C(C2=C(C=C1)C(=O)C3=CC=CC=C3N2CCCN)C
Method in brief: as §1

[6] = compound: CC1=C(C=C(C=C1)NC(=O)C2=CC(=CC=C2)C(C)(C)C#N)NC3=CC4=C(C=C3)N=CN(C4=O)C
Method in brief: as §1

[7] = compound: CC1=C(C=C(C=C1)NC(=O)C2=CC(=CC=C2)N(C)C)NC(=O)C3=CC=C(C=C3)O
Method in brief: as §1

[8] = compound: CC1=CC=C(C=C1)SC2=C3C=C(SC3=CN=C2)C(=O)N
Method in brief: as §1

Measured: log2 fold change

CBFA2T3 (UniProt O75081)
inactive: ibrutinib 0.005 | [1] 0.016 | ralimetinib 0.019 | [2] -0.005 | [3] -0.013 | [4] -0.001 | [5] 0.003 | [6] -0.016 | [7] 0.022 | [8] -0.005

CCNB2 (UniProt O95067)
inactive: ibrutinib -0.062 | ralimetinib 0.028 | [2] -0.028 | [3] 0.023 | [4] -0.011 | [5] 0.017 | [6] 0.022 | [7] 0.037 | [8] -0.079
active: [1] 0.358

CCDC137 (UniProt Q6PK04)
inactive: ibrutinib 0.126 | [1] -0.041 | ralimetinib -0.025 | [2] 0.011 | [3] 0.067 | [4] 0.097 | [5] 0.014 | [6] -0.028 | [7] -0.066 | [8] 0.019

CCDC47 (UniProt Q96A33)
inactive: ibrutinib 0 | [1] 0.002 | ralimetinib 0.01 | [2] -0.063 | [3] -0.042 | [4] 0.044 | [5] -0.002 | [6] 0.041 | [7] 0.045 | [8] -0.013

CCDC25 (UniProt Q86WR0)
inactive: ibrutinib 0.023 | [1] -0.006 | ralimetinib -0.018 | [2] -0.013 | [3] 0.017 | [4] -0.042 | [5] -0.022 | [6] 0.03 | [7] -0.002 | [8] 0

CASTOR2 (UniProt A6NHX0)
inactive: ibrutinib -0.03 | [1] 0.028 | ralimetinib 0.008 | [2] 0.051 | [3] -0.025 | [4] -0.037 | [5] 0.015 | [6] -0.024 | [7] 0.015 | [8] -0.011

CCDC43 (UniProt Q96MW1)
inactive: ibrutinib 0.004 | [1] -0.019 | ralimetinib 0.057 | [2] 0.02 | [3] -0.021 | [4] -0.005 | [5] -0.03 | [6] 0.01 | [7] 0.01 | [8] -0.027

CCDC93 (UniProt Q567U6)
inactive: ibrutinib -0.006 | [1] -0.017 | ralimetinib -0.01 | [2] 0.002 | [3] -0.017 | [4] 0.023 | [5] 0.021 | [6] -0.014 | [7] 0.038 | [8] 0.055

CCNB1 (UniProt P14635)
active: [1] 0.503
inactive: ibrutinib -0.01 | ralimetinib 0.009 | [2] -0.045 | [3] -0.012 | [4] -0.005 | [5] 0.003 | [6] 0.044 | [7] -0.002 | [8] 0

CCDC88A (UniProt Q3V6T2)
inactive: ibrutinib 0.005 | [1] 0.018 | ralimetinib 0.006 | [2] -0.023 | [3] -0.012 | [4] 0.008 | [5] 0.008 | [6] -0.003 | [7] 0.012 | [8] -0.002

CD63 (UniProt P08962)
inactive: ibrutinib -0.012 | [1] -0.063 | ralimetinib 0.078 | [2] -0.023 | [3] 0.017 | [4] 0.005 | [5] 0.049 | [6] 0 | [7] 0.039 | [8] 0.023

CCT3 (UniProt P49368)
inactive: ibrutinib 0.003 | [1] -0.011 | ralimetinib -0.003 | [2] -0.004 | [3] -0.003 | [4] -0.031 | [5] -0.02 | [6] -0.007 | [7] 0.003 | [8] 0.003

CBFB isoform 2 (UniProt Q13951)
inactive: ibrutinib 0.018 | [1] 0.022 | ralimetinib 0.011 | [2] 0 | [3] -0.05 | [4] -0.012 | [5] 0.074 | [6] -0.017 | [7] 0.039 | [8] 0.014

CCDC50 (UniProt Q8IVM0)
inactive: ibrutinib 0.116 | [1] 0.089 | ralimetinib -0.051 | [2] -0.048 | [3] -0.056 | [4] 0.022 | [6] -0.071 | [7] -0.007 | [8] 0.164

CBX1 (UniProt P83916)
inactive: ibrutinib -0.002 | [1] 0.021 | ralimetinib -0.006 | [2] -0.023 | [3] -0.039 | [4] -0.033 | [5] -0.024 | [6] 0.007 | [7] -0.003 | [8] -0.046

CD80 (UniProt P33681)
inactive: [1] 0.034 | ralimetinib 0.207 | [2] -0.051 | [3] -0.136 | [4] 0.106 | [5] -0.084 | [6] 0.043 | [7] -0.119 | [8] 0.014

CD226 (UniProt Q15762)
inactive: ibrutinib 0.122 | [1] 0.183 | [8] 0.142

CCHCR1 isoform 2 (UniProt Q8TD31)
inactive: ibrutinib 0.116 | [3] 0.122 | [4] -0.048 | [6] 0.03

CCP110 (UniProt O43303)
inactive: ibrutinib -0.008 | ralimetinib 0.082 | [2] 0.001 | [3] 0.054 | [5] -0.186 | [6] 0.01 | [7] 0.113

CASP8 isoform 4 (UniProt Q14790)
inactive: ibrutinib 0.001 | [5] 0.072

CCT3 (UniProt E9PM09)
inactive: ibrutinib -0.145 | [1] -0.032 | ralimetinib -0.253 | [2] 0.184 | [3] 0.148 | [4] -0.155 | [5] -0.227 | [7] -0.162 | [8] 0.003

CARHSP1 (UniProt H3BNU9)
inactive: ibrutinib 0.147 | [1] -0.005 | [4] -0.107 | [8] 0.107

CD53 (UniProt P19397)
inactive: ibrutinib 0.055 | [1] 0.03 | ralimetinib -0.009 | [2] -0.188 | [3] -0.102 | [4] -0.018 | [6] 0 | [7] -0.045 | [8] 0.039

CCDC127 (UniProt Q96BQ5)
inactive: ibrutinib 0.021 | [1] 0.062 | ralimetinib 0.002 | [2] -0.043 | [3] 0.014 | [5] -0.028 | [6] -0.111 | [7] 0.02 | [8] -0.055

Copied from the listing (2 entries):
CASP8 isoform 4 (UniProt Q14790)
inactive: ibrutinib 0.001 | [5] 0.072

CCT3 (UniProt E9PM09)
inactive: ibrutinib -0.145 | [1] -0.032 | ralimetinib -0.253 | [2] 0.184 | [3] 0.148 | [4] -0.155 | [5] -0.227 | [7] -0.162 | [8] 0.003

(next part)

CCNC (UniProt P24863)
inactive: ibrutinib -0.04 | [1] 0.087 | ralimetinib 0.026 | [2] 0.011 | [3] 0.02 | [4] -0.05 | [5] 0.034 | [6] 0.061 | [7] 0.016 | [8] 0.184

CCDC13 (UniProt Q8IYE1)
inactive: ibrutinib 0.412 | [1] -0.024 | [4] 0 | [5] -0.412 | [6] 0.151 | [8] -0.052

CCDC57 (UniProt Q2TAC2)
inactive: ibrutinib -0.041 | [1] -0.063 | ralimetinib -0.053 | [2] -0.03 | [4] -0.038 | [5] 0.02 | [7] -0.05 | [8] -0.007

CCND3 (UniProt P30281)
inactive: ibrutinib 0.122 | ralimetinib 0.039 | [2] 0 | [3] 0.032 | [4] -0.104 | [5] -0.063 | [6] -0.021 | [7] -0.067

CCNT2 (UniProt O60583)
inactive: ibrutinib -0.014 | [1] -0.325 | ralimetinib -0.008 | [2] -0.148 | [4] 0.003 | [5] -0.086 | [6] 0.113 | [7] 0.039 | [8] 0.061

CARNMT1 (UniProt Q8N4J0)
inactive: ibrutinib -0.014 | [1] -0.003 | ralimetinib -0.007 | [2] -0.056 | [3] -0.041 | [4] 0.004 | [5] -0.014 | [6] 0.082 | [7] -0.043 | [8] -0.006

CCDC144A (UniProt A2RUR9)
inactive: ibrutinib -0.092 | [3] 0.134 | [5] 0.055 | [6] -0.127

CCDC130 (UniProt P13994)
inactive: ibrutinib -0.232 | ralimetinib 0.181 | [2] 0.077 | [3] -0.112 | [6] 0.252 | [7] 0.072

CASP8AP2 (UniProt Q9UKL3)
inactive: ibrutinib -0.065 | ralimetinib 0.079 | [2] -0.016 | [6] -0.111 | [7] -0.037

CCDC9, A0A2R8Y4Z8
inactive: ibrutinib -0.005 | [1] -0.185 | ralimetinib -0.082 | [2] -0.133 | [5] -0.122 | [6] -0.154 | [7] 0.058 | [8] -0.04
